Test results reported in the supplement of paper PMC10849652.
This is one part of the list.

The chains behind the UniProt entries cited, without tags or fusion partners. Where a name states a change or a piece, a line headed by the entry shows the natural chain unless it says otherwise.
UniProt Q96K19: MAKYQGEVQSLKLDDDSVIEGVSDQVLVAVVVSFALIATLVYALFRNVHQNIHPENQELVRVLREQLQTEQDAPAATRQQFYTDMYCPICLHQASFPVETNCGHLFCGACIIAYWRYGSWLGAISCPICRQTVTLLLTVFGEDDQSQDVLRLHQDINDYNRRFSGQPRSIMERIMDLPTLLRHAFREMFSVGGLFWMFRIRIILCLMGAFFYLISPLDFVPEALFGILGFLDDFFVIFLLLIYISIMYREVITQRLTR
UniProt P52758: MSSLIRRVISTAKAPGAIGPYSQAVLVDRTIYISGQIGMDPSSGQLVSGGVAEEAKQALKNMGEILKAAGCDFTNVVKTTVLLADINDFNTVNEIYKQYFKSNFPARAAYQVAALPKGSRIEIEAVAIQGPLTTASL
UniProt P60602: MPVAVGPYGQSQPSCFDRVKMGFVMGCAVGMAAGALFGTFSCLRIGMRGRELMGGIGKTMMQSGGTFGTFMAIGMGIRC
UniProt Q99496: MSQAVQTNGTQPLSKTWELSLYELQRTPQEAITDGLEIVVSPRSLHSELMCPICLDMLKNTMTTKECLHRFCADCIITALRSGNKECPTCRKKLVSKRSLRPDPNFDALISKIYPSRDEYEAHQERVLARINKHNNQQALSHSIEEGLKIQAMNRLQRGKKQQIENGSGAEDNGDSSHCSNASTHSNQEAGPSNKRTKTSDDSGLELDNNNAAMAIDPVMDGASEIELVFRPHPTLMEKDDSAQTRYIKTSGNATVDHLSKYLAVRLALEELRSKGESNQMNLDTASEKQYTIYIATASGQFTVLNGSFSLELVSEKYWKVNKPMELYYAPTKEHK
UniProt O75150, whole entry, looked up: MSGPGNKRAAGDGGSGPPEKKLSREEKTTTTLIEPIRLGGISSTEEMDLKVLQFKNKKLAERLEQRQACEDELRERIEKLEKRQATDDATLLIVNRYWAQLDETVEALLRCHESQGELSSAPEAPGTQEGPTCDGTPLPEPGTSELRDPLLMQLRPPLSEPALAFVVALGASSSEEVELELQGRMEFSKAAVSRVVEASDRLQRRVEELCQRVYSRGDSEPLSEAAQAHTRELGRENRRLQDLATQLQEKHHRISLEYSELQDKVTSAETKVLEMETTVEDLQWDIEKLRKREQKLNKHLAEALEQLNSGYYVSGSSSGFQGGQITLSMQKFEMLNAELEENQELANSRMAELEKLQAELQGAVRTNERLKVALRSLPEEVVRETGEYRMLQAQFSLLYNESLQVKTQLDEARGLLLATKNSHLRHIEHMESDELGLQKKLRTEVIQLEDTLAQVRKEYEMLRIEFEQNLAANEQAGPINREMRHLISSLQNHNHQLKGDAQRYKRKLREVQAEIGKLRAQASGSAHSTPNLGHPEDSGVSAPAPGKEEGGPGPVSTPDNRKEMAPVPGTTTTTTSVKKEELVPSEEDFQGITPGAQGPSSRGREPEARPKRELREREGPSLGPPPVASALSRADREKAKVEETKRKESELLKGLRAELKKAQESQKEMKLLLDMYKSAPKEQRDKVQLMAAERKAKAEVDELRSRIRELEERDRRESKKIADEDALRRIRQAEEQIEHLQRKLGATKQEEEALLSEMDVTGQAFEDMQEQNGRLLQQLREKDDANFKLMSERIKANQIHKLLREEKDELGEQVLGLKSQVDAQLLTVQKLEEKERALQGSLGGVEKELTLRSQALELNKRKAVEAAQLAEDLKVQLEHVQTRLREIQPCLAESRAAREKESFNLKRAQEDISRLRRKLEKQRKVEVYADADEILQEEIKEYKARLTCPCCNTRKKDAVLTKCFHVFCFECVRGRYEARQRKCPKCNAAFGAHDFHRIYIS
UniProt Q9NWS8: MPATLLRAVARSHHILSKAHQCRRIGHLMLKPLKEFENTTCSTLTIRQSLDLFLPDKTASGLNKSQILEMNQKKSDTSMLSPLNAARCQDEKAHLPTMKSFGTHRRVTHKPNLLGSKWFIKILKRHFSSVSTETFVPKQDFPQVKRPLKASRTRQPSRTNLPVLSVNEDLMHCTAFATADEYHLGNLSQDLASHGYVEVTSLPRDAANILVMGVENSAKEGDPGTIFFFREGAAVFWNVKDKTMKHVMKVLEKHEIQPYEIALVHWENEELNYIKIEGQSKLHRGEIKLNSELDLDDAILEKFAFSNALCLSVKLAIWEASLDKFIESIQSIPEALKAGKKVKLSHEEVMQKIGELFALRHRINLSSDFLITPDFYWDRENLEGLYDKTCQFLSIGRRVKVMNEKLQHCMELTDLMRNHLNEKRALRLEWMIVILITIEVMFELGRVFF
UniProt Q96E14: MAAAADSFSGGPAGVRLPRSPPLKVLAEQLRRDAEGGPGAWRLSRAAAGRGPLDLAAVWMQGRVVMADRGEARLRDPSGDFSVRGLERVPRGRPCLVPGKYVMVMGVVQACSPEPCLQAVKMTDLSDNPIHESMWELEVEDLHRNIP
UniProt Q96NA2: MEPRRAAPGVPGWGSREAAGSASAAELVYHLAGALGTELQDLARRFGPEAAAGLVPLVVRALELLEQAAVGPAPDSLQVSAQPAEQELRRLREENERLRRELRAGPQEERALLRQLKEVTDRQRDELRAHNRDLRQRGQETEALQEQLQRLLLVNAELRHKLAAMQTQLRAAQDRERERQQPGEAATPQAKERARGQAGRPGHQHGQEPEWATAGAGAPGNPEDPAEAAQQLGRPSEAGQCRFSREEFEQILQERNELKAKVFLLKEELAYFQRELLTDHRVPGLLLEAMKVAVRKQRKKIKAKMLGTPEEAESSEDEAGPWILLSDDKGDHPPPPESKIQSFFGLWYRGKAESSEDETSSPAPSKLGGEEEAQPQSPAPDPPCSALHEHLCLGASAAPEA
UniProt P15927: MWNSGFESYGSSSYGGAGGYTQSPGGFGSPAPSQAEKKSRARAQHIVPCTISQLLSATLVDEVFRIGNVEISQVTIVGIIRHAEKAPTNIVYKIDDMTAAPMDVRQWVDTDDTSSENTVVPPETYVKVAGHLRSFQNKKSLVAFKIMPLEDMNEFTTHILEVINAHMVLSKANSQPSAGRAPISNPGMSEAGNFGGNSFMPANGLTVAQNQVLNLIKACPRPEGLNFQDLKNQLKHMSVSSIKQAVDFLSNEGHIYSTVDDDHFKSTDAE
UniProt Q9H6W3: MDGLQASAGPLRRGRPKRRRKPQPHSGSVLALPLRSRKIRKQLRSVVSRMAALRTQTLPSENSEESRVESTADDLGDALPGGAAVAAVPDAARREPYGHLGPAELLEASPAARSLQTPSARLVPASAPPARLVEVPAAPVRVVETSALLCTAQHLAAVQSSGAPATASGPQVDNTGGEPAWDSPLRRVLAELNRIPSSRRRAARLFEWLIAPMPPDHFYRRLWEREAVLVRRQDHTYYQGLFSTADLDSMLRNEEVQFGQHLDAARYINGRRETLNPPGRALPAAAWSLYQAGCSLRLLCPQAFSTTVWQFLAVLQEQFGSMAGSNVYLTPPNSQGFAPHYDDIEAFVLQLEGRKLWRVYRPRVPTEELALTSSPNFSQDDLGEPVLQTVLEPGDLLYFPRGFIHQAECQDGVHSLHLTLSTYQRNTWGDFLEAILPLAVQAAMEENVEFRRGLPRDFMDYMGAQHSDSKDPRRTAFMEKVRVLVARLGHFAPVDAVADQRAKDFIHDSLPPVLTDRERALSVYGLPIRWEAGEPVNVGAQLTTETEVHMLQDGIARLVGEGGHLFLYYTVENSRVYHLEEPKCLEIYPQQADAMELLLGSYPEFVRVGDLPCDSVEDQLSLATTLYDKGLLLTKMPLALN
UniProt Q5TA31: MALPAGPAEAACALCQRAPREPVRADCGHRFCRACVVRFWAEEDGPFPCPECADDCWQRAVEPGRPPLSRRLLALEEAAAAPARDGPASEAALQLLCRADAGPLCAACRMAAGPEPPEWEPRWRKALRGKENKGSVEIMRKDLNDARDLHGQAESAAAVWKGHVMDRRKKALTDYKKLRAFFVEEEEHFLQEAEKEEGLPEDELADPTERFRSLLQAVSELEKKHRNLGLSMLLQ
UniProt Q5XPI4: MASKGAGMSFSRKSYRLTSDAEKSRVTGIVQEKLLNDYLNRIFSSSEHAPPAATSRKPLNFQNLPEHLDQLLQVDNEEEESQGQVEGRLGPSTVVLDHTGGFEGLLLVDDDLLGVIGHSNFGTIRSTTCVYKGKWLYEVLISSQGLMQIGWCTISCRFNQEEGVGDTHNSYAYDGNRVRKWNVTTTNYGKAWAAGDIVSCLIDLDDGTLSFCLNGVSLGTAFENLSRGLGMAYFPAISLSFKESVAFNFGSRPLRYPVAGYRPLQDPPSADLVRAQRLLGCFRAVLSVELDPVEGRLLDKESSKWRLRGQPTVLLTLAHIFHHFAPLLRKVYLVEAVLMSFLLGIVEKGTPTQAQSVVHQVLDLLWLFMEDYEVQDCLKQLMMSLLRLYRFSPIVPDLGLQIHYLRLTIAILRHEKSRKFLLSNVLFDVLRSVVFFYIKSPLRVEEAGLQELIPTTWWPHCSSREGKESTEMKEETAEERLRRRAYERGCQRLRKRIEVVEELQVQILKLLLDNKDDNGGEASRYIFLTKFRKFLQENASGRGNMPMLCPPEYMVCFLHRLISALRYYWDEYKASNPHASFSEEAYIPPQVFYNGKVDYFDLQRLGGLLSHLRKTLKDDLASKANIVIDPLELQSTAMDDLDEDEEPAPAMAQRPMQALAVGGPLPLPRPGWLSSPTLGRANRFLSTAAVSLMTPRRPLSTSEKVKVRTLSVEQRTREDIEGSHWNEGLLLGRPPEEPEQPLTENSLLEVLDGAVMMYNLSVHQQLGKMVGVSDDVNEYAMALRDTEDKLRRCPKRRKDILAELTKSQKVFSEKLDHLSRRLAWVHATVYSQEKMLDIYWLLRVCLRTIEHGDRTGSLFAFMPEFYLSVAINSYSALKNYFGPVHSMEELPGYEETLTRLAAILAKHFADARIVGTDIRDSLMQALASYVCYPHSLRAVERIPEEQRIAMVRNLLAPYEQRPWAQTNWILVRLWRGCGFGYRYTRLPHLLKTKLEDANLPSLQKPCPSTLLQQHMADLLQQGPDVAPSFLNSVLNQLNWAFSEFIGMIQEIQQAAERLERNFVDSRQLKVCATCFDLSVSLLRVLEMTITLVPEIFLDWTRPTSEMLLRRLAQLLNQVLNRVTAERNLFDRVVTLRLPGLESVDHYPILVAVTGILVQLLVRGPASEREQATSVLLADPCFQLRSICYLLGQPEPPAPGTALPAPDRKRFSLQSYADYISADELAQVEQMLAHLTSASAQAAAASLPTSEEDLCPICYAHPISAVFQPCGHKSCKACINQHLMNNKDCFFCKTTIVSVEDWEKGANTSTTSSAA
UniProt Q9HAU8: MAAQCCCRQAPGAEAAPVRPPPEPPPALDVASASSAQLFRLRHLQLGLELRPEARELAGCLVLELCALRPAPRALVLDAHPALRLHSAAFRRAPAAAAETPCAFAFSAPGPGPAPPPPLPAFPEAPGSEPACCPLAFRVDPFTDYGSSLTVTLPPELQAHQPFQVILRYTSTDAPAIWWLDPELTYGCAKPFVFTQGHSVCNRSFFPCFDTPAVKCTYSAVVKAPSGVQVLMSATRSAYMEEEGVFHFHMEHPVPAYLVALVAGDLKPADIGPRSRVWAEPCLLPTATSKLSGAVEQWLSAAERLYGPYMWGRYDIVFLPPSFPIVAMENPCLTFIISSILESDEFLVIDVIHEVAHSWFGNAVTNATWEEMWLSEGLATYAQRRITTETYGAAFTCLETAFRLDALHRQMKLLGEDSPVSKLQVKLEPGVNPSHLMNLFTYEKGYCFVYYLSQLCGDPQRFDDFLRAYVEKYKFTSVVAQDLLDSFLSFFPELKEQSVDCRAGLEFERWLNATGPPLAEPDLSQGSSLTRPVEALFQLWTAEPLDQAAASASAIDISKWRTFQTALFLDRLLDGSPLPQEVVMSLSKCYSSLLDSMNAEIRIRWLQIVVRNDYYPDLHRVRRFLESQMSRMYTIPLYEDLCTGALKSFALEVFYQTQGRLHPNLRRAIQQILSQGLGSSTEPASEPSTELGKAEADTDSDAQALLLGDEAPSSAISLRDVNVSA

How the values were obtained:
Test in all cases: log2 fold change, soluble protein after heating vs DMSO (PISA); higher = thermal stabilisation; K562 lysate, 10 uM; active = over 0.2 and 3.5 SD of the protein, either way, in both replicates (recomputed)
[1] = compound: C#Cc1cccc(Nc2ncnc3cc(OCCOC)c(OCCOC)cc23)c1 [erlotinib]
Procedure, shortened: (§1)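 K562 pellets were dounce-homogenised in PBS pH 7.4 with 1 mM MgCl2, and the crude extract at 1 mg/mL protein was treated with 10 μM compound for 30 min. Aliquots were heated for 3 min across 48°C-58°C, pooled, and brought to 0.5% NP-40 at 4°C; soluble protein was the supernatant after 21,000xg for 90 min. Soluble protein was quantified by TMTpro 16plex LC-MS/MS with channel sums equalised, and reported as log2 fold change in thermal stability against DMSO controls, with values from duplicates.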

[2] = compound: C/C(=N\NC(=O)C1=CC(=CC=C1)S(=O)(=O)N2CCOCC2)/C3=C(C=CC(=C3)Cl)O
Procedure, shortened: as §1

[3] = compound: C1=CC(=CC=C1C2=NC3=C(N2)C=C(C=C3)C(=O)N)OC4=CC=C(C=C4)Cl
Procedure, shortened: as §1

[4] = compound: C1=CC2=C(C=CC(=C2)/C=C\3/C(=O)NC(=NCC4=CC=CS4)S3)N=C1
Procedure, shortened: as §1

[5] = compound: C1=CC2=NC=CN=C2C=C1/C=C/3\C(=O)NC(=O)S3
Procedure, shortened: as §1

[6] = compound: C1=CC=C2C(=C1)C3=NNC4=CC=CC(=C43)C2=O
Procedure, shortened: as §1

[7] = compound: C=CC(=O)N1CCC[C@@H](n2nc(-c3ccc(Oc4ccccc4)cc3)c3c(N)ncnc32)C1 [ibrutinib]
Procedure, shortened: as §1

[8] = compound: CC(=O)c1cnc2ccc(-c3cc(Cl)c(O)c(Cl)c3)nc2c1N[C@H]1CC[C@H](CN(C)C)CC1
Procedure, shortened: as §1

[9] = compound: CC(C)C1=C2N=C(C=C(N2N=C1)NCC3=CC=CC=C3)NCCCCCCN
Procedure, shortened: as §1

[10] = compound: CC1=C(C(CC(=O)N1)C2=CC=C(C=C2)C(F)(F)F)C(=O)NC3=C(C=C4C(=C3)C=NN4)F
Procedure, shortened: as §1

[11] = compound: CC1=C(C2=C(C=C1)C(=O)C3=CC=CC=C3N2CCCN)C
Procedure, shortened: as §1

[12] = compound: CC1=CC=C(C=C1)SC2=C3C=C(SC3=CN=C2)C(=O)N
Procedure, shortened: as §1

[13] = compound: C1=CC=C(C=C1)C2=NC(=C(N2)C3=CC=NC=C3)C4=CC(=C(C=C4)Cl)O
Procedure, shortened: as §1

[14] = compound: C1CCN(C1)C(=O)NC2=CC=CC(=C2)NC3=NC=C(C(=N3)NCCC4=CN=CN4)Br
Procedure, shortened: as §1

[15] = compound: C1CN(CCC1(CC2=CC=C(C=C2)Cl)N)C3=NC=NC4=C3C=CN4
Procedure, shortened: as §1

[16] = compound: C1COCCN1CCN2C3=CC=CC=C3N=C2NC(=O)C4=CC(=CC=C4)[N+](=O)[O-] [IRAK-1-4 Inhibitor I]
Procedure, shortened: as §1

[17] = compound: CC(C)(C)Cn1c(N)nc2ccc(-c3[nH]c(C(C)(C)C)nc3-c3ccc(F)cc3)nc21 [ralimetinib]
Procedure, shortened: as §1

[18] = compound: CC(C)(O)CC(=O)NCCn1ccc2ncnc(Nc3ccc(Oc4cccc(C(F)(F)F)c4)c(Cl)c3)c21
Procedure, shortened: as §1

[19] = compound: CC1=C(C=C(C=C1)NC(=O)C2=CC(=CC=C2)C(C)(C)C#N)NC3=CC4=C(C=C3)N=CN(C4=O)C
Procedure, shortened: as §1

[20] = compound: CC1=C(C=C(C=C1)NC(=O)C2=CC(=CC=C2)N(C)C)NC(=O)C3=CC=C(C=C3)O
Procedure, shortened: as §1

Measured: log2 fold change

RNF170 (UniProt Q96K19)
inactive: [1] 0.062 | [2] -0.018 | [3] -0.125 | [4] 0.136 | [5] 0.032 | [6] -0.577 | [7] -0.006 | [8] 0.107 | [9] 0.084 | [10] 0.302 | [11] -0.035 | [12] -0.036

RIDA (UniProt P52758)
inactive: [1] -0.027 | [2] -0.31 | [3] -0.001 | [4] -0.034 | [5] -0.036 | [13] 0.01 | [6] 0.033 | [14] 0.009 | [15] 0.056 | [16] -0.085 | [7] -0.007 | [8] -0.016 | [17] -0.03 | [18] -0.011 | [9] -0.041 | [10] -0.022 | [11] 0.017 | [19] -0.053 | [20] 0.048 | [12] -0.016

ROMO1 (UniProt P60602)
inactive: [1] 0.056 | [2] 0.038 | [3] 0.097 | [4] 0.166 | [13] -0.021 | [6] 0.044 | [14] -0.047 | [15] -0.047 | [16] -0.053 | [8] 0.027 | [17] 0.225 | [18] -0.007 | [9] -0.066 | [10] -0.008 | [11] -0.033 | [19] 0.032 | [20] 0.199 | [12] 0.075

RNF2 (UniProt Q99496)
inactive: [1] 0.061 | [2] -0.088 | [3] -0.031 | [4] 0.036 | [13] 0.002 | [6] -0.01 | [14] 0.048 | [15] -0.037 | [16] -0.039 | [17] -0.053 | [18] -0.01 | [9] 0.017 | [10] 0.009 | [11] -0.081 | [19] -0.048 | [20] 0.024

RNF40 (UniProt O75150)
inactive: [1] -0.008 | [2] -0.01 | [3] 0.007 | [4] -0.039 | [5] -0.016 | [13] 0.003 | [6] -0.04 | [14] 0.011 | [15] 0.024 | [16] -0.008 | [7] 0.048 | [8] -0.014 | [17] 0.033 | [18] -0.015 | [9] -0.023 | [10] 0.007 | [11] -0.01 | [19] -0.001 | [20] -0.006 | [12] 0.004

RMND1 (UniProt Q9NWS8)
inactive: [1] -0.042 | [2] -0.001 | [3] -0.007 | [4] 0.021 | [5] -0.022 | [13] -0.021 | [6] -0.006 | [14] 0.003 | [15] 0.051 | [16] 0.008 | [7] 0.01 | [8] 0.007 | [17] -0.032 | [18] 0.038 | [9] -0.035 | [10] 0.011 | [11] 0 | [19] 0.054 | [20] 0.061 | [12] -0.001

RMI2 (UniProt Q96E14)
inactive: [1] 0.051 | [2] -0.246 | [3] -0.121 | [4] 0.206 | [13] 0.002 | [6] -0.121 | [14] -0.044 | [15] 0.117 | [16] 0.054 | [17] -0.061 | [18] 0.007 | [9] -0.032 | [11] 0.021 | [19] 0.011 | [20] 0.039

RPL14 (UniProt P50914)
inactive: [1] -0.021 | [2] -0.048 | [3] 0.006 | [4] -0.011 | [5] 0.017 | [13] 0.035 | [6] 0.033 | [14] 0.062 | [15] -0.003 | [16] -0.004 | [7] 0.011 | [8] 0.008 | [17] 0.034 | [18] 0.002 | [9] -0.009 | [10] -0.008 | [11] 0 | [19] -0.061 | [20] 0.003 | [12] 0.054

RILP (UniProt Q96NA2)
inactive: [1] -0.074 | [2] 0.014 | [3] 0 | [4] -0.017 | [5] -0.014 | [13] -0.004 | [6] -0.006 | [14] -0.009 | [15] -0.024 | [16] -0.002 | [7] 0.034 | [8] 0.044 | [17] 0.013 | [18] 0.026 | [9] -0.001 | [10] 0.032 | [11] 0.021 | [19] -0.004 | [20] 0.013 | [12] -0.015

RPA2 isoform 3 (UniProt P15927)
inactive: [1] 0.009 | [2] 0.04 | [3] 0.024 | [4] 0.001 | [5] 0.005 | [13] -0.007 | [6] 0.018 | [14] 0.001 | [15] 0.011 | [16] 0.001 | [7] -0.007 | [8] -0.013 | [17] 0.005 | [18] -0.003 | [9] -0.006 | [10] -0.037 | [11] 0.002 | [19] 0.019 | [20] -0.002 | [12] -0.012

RINT1 (UniProt Q6NUQ1)
inactive: [1] 0.056 | [2] 0.029 | [3] -0.01 | [4] 0.012 | [5] 0.03 | [13] -0.042 | [6] -0.048 | [14] -0.029 | [15] 0.067 | [16] 0.074 | [7] 0.011 | [8] 0.07 | [17] 0.05 | [18] -0.094 | [9] 0.016 | [10] -0.066 | [11] -0.064 | [19] -0.02 | [20] 0.012 | [12] 0.016

RIOX1 (UniProt Q9H6W3)
inactive: [1] 0.043 | [2] -0.429 | [3] 0.101 | [4] 0.079 | [13] -0.144 | [6] 0.145 | [14] -0.003 | [15] 0.018 | [16] 0.007 | [8] 0 | [17] 0.112 | [18] -0.116 | [9] -0.083 | [10] -0.236 | [11] -0.042 | [19] 0.033 | [20] -0.072 | [12] 0.11

Two successive records from above, quoted:
RPL14 (UniProt P50914)
inactive: [1] -0.021 | [2] -0.048 | [3] 0.006 | [4] -0.011 | [5] 0.017 | [13] 0.035 | [6] 0.033 | [14] 0.062 | [15] -0.003 | [16] -0.004 | [7] 0.011 | [8] 0.008 | [17] 0.034 | [18] 0.002 | [9] -0.009 | [10] -0.008 | [11] 0 | [19] -0.061 | [20] 0.003 | [12] 0.054

RILP (UniProt Q96NA2)
inactive: [1] -0.074 | [2] 0.014 | [3] 0 | [4] -0.017 | [5] -0.014 | [13] -0.004 | [6] -0.006 | [14] -0.009 | [15] -0.024 | [16] -0.002 | [7] 0.034 | [8] 0.044 | [17] 0.013 | [18] 0.026 | [9] -0.001 | [10] 0.032 | [11] 0.021 | [19] -0.004 | [20] 0.013 | [12] -0.015

Further results.

RNF187 (UniProt Q5TA31)
inactive: [1] -0.007 | [2] -0.01 | [3] 0.175 | [4] -0.056 | [5] -0.005 | [13] -0.029 | [6] -0.089 | [14] -0.081 | [15] 0.101 | [16] -0.007 | [7] 0.05 | [17] -0.031 | [18] -0.054 | [9] 0.055 | [10] -0.024 | [11] -0.035 | [19] 0.025 | [20] -0.039

RNF123 (UniProt Q5XPI4)
inactive: [1] 0.058 | [2] 0.016 | [3] -0.008 | [4] 0.029 | [5] 0.019 | [13] -0.015 | [6] -0.035 | [14] -0.005 | [15] 0.044 | [16] -0.019 | [7] 0.028 | [8] 0.017 | [17] 0.029 | [18] -0.042 | [9] -0.003 | [10] -0.02 | [11] 0.001 | [19] 0.027 | [20] -0.016 | [12] 0.022

RNPEPL1 (UniProt Q9HAU8)
inactive: [1] -0.095 | [2] -0.069 | [3] 0.096 | [4] 0.096 | [13] -0.086 | [6] 0.141 | [16] 0.014 | [8] -0.116 | [17] 0.019 | [18] 0.005 | [9] -0.017 | [10] 0.141 | [11] -0.017 | [19] -0.004 | [20] 0.039 | [12] -0.049

RPL12 (UniProt P30050)
inactive: [1] 0.017 | [2] -0.01 | [3] 0.011 | [4] -0.025 | [5] -0.021 | [13] -0.004 | [6] 0.033 | [14] 0.003 | [15] -0.022 | [16] 0.019 | [7] -0.035 | [8] 0.004 | [17] -0.021 | [18] -0.074 | [9] 0.042 | [10] -0.051 | [11] 0.004 | [19] 0.045 | [20] 0.006 | [12] 0.038

RPL10 (UniProt P27635)
inactive: [1] 0.004 | [2] -0.134 | [3] -0.01 | [4] 0.001 | [5] 0.007 | [13] 0.018 | [6] 0.076 | [14] 0.039 | [15] -0.077 | [16] -0.015 | [7] -0.007 | [8] 0.004 | [17] 0.014 | [18] 0.002 | [9] 0.003 | [10] 0.004 | [11] -0.038 | [19] -0.014 | [20] -0.008 | [12] 0.052
